{"source": "paper doi:10.1101/2021.09.13.460064", "molecular_target": "T1, Full-length wild type N-terminally hexa-histidine tagged S. cerevisiae Kar9 (S. cerevisiae) (UniProt P32526)", "T1 sequence": "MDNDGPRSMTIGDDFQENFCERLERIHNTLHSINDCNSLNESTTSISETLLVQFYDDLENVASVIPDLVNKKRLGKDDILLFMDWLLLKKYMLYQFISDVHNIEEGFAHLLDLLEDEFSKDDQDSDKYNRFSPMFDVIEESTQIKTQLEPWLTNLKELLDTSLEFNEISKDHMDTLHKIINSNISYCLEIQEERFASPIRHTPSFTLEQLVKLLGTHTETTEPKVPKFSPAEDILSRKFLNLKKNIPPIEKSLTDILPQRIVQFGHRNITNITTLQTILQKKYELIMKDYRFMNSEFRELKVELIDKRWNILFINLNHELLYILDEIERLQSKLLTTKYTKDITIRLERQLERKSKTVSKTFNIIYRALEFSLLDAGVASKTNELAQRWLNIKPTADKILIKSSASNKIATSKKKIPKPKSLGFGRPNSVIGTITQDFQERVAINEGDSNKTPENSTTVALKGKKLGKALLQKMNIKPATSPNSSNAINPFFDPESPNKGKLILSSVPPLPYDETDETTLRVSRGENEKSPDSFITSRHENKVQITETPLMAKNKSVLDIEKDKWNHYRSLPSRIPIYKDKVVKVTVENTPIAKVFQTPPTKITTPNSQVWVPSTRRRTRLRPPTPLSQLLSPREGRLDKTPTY", "experiment": "co-purification", "note": "No constants are given. Whether binding was seen depends on the method and setting. Some results given as binding are weak or reduced against the parent protein; the word gives no strength. Sequences can lack the tags named with a protein."}
{"binder": "Full-length S. cerevisiae Bim1, untagged (protein, UniProt P40013 1-344) MSAGIGESRTELLTWLNGLLNLNYKKIEECGTGAAYCQIMDSIYGDLPMNRVKFNATAEYEFQTNYKILQSCFSRHGIEKTVYVDKLIRCKFQDNLEFLQWLKKHWIRHKDESVYDPDARRKYRPIITNNSATKPRTVSNPTTAKRSSSTGTGSAMSGGLATRHSSLGINGSRKTSVTQGQLVAIQAELTKSQETIGSLNEEIEQYKGTVSTLEIEREFYFNKLRDIEILVHTTQDLINEGVYKFNDETITGHGNGNGGALLRFVKKVESILYATAEGFEMNDGEDELNDKNLGEHGTVPNQGGYANSNGEVNGNEGSNHDVIMQNDEGEVGVSNNLIIDEETF", "values": [{"measurement": "binding", "result": "binds"}]}
